PubChem BioAssay AID743454 – Peter MacCallum Cancer Centre – 2014
This is one part, drawn at random, of about 18,000 reagents. 450 of them (2.5%) count as active. 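Single biological run; no consistent viability z cut-off exists, so the class columns, not z-scores, define the calls.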 Unmarked entries are inactive. Reagent sequences are not shown.

Test: 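Search for knock-downs that restore vorinostat killing in resistant colon cancer cells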 (primary screen)
Cells: human HCT116-VR colon cancer cells, selected for vorinostat resistance
Reagents: siRNA pool against human genes, 40 nM siRNA pool
Duration: vorinostat for 24 h, read-out about 72 h after transfection
Conditions: vorinostat at 2.5 µM final
Read-out: 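Cell viability by CellTiter-Fluor and caspase 3/7 activity by luminescence, each scaled to mock wells per plate, duplicates averaged, then robust z-scored over all plates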
Reading the numbers: viability robust z-score: higher = more viable cells than screen typical; caspase robust z-score: higher = more caspase 3/7 activity than screen typical
Hit rule: 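Hits are knock-downs in viability class RV1/RV2 or caspase class CA1/CA2, excluding ones that killed cells in the no-drug cell-count arm; hits then retested with single siRNAs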

gene | viability hit class | caspase hit class | viability robust z-score | caspase robust z-score
SLC39A10 | no change | no change | 0.96 | -0.04
CEBPB | no change | no change | 0.42 | -0.77
ESRP2 | no change | no change | -0.72 | 0.72
PRG4 | no change | no change | 1.73 | -0.45
PSMC2 | no change | no change | -4.41 | 1.4
ADGRF2P | no change | no change | -0.85 | 0.36
FERD3L | no change | no change | 0.44 | 0.01
LSM14A | no change (active) | CA2 (caspase activation) | -1.14 | 10.7
DUSP10 | no change | no change | 0.39 | 0.03
MAP4K3 | no change | no change | -0.85 | -0.63
RAD18 | no change | no change | -0.54 | -0.98
HAUS2 | no change | no change | -0.43 | 1.79
RHOT1 | no change | no change | 1.23 | -0.44

Next part (3 carried over from the part before).
gene | viability hit class | caspase hit class | viability robust z-score | caspase robust z-score
RAD18 | no change | no change | -0.54 | -0.98
HAUS2 | no change | no change | -0.43 | 1.79
RHOT1 | no change | no change | 1.23 | -0.44
OR5P2 | no change | no change | -0.18 | -1.01
FAM222B | no change | no change | -0.18 | -0.69
SPEF1 | no change | no change | 0.19 | -0.94
WDR18 | no change | no change | -0.93 | 1.82
AP5B1 | no change | no change | 0.5 | 0.38
SLC25A17 | no change | no change | -0.8 | -1.33
PMF1 | no change | no change | 0.34 | 3.98
REEP2 | no change | no change | -0.86 | 1.03
DHRS12 | no change | no change | 0.64 | -1.03
NDUFAF1 | no change | no change | -1.19 | -0.34
